In publication PMC3098239:
No constants are given. Whether binding was seen depends on the method and setting. Binding seen in cells or lysates may run through a third protein. Some binding calls cover weakened binding; strength is not graded here. Tags and fused reporters may be left off the sequences shown.

Columns and labels:
Test in all cases: co-IP; HEK293T cells cotransfected with HA-MARCH5 construct and Flag-TANK; lysis in TBS (50 mM Tris-Cl pH 7.4, 150 mM NaCl) with 1% Triton-X 100; immunoprecipitated with anti-HA, blotted with anti-Flag; 4°C
[1] = target: T1, MARCH5-DM, the C-terminal transmembrane domain truncation (Δ105-246 a.a.) (mouse (from the printed RefSeq NP_081590)) (UniProt Q3KNM2)
T1 sequence: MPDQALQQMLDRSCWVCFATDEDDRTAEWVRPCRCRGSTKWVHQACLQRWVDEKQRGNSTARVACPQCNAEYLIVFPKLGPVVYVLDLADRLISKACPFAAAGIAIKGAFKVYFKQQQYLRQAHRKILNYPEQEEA

[2] = target: T2, HA-MARCH5 (wild type) (mouse (from the printed RefSeq NP_081590; HA-MARCH5 is set apart from HA-hMARCH5 in Figure 1)) (UniProt Q3KNM2)
T2 sequence: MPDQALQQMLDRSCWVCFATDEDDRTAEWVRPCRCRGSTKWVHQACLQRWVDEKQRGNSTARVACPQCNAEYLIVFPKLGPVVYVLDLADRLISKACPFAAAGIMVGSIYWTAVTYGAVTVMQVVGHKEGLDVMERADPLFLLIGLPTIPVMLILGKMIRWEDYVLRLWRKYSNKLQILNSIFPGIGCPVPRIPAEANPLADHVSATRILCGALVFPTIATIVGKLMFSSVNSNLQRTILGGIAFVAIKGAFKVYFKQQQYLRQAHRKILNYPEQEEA

[3] = target: T3, HA-MARCH5 ΔRING (mouse (from the printed RefSeq NP_081590)) (UniProt Q3KNM2)
T3 sequence: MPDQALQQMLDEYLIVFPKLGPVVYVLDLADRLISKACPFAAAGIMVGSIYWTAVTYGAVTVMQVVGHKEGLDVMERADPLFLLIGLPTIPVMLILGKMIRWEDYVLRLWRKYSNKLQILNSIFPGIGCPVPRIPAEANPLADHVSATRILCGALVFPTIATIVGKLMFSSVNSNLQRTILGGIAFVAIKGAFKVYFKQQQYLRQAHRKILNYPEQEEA

Measured: binding

B1: Flag-TANK (wild type) (protein, UniProt P70347-2 1-414)
chain: MDKNIGEQLNRAYEAFRQACMDRDSAVRELQQKQTENYEQRIREQQEQLSFQQNLIDRLKSQLLLVDSSRDNSYGYVPLLEDSDRRKNNLTLDEPHDKVKLGTLRDKQSKVRRQEVSSGKESAKGLNIPLHHERDNIEKTFWDLKEEFHRICLLAKAQKDHLSKLNIPDIATDTQCSVPIQCTDKTEKQEALFKPQAKDDINRGMSCVTAVTPRGLGRDEEDTSFESLSKFNVKFPPMDNDSIFLHSTPEAPSILAPATPETVCQDRFNMEVRDNPGNFVKTEETLFEIQGIDPITSAIQNLKTTDKTNPSNLRATCLPAGDHNVFYVNTFPLQDPPDAPFPSLDSPGKAVRGPQQPFWKPFLNQDTDLVVPSDSDSELLKPLVCEFCQELFPPSITSRGDFLRHLNTHFNGET
binds: [1] | [2] | [3]
